Results: US4559324A (Takeda Chemical Industries, Ltd., priority 1982, dated 1985)

Assay: general procedure: solution-phase peptide synthesis; DCC/HONB; DCC/HOBt

Row | Substance | step yield (coupling step) [%] | also measured
1 | Z-(D)-Trp-Phe-Gly-Asp(OBu^t)2 | 63.7 | 
2 | H-(D)-Arg-Gly-Gln-(D)-Trp-Phe-(D)-Trp-Asp(OBu^t)2.citrate |  | step yield (late stage modification step, citrate): 83%
3 | H-Lys-Gly-Gln-Phe-Phe-Gly-Asp(OBu^t)2.tartarate |  | step yield (late stage modification step, tartarate): 97%
4 | H-Arg-Gly-Gln-(D)-Trp-Phe-Gly-Asp(OBu^t)2 |  | step yield (late stage modification step): 45.7%
5 | Z-Phe-Phe-Gly-Asp(OBu^t)2 | 63.3 | 
6 | Z-Arg(NO2)-Gly-Gln-Phe-Phe-Gly-Asp(OBu^t)2 | 63.1 | 
7 | H-Arg-Gln-Phe-Phe-Gly-Asp(OBu^t)2 | 62.3 | 
8 | H-Arg-Gly-Gln-Phe-Phe-(D)-Ala-Asp(OBu^t)2 | 20.5 | 
9 | Z-Gln-Phe-Phe-(D)-Ala-Asp(OBu^t)2 | 84.2 | 
10 | H-Lys-Gln-Phe-Phe-Gly-Asp(OBu^t)2 | 42.0 | 
11 | Z-Phe-Phe-(D)-Ala-Asp(OBu^t)2 | 48.2 | 
12 | Z-Arg(NO2)-Gly-Gln-(D)-Trp-Phe-Gly-Asp(OBu^t)2 | 90.4 | 
13 | Z-Gln-Phe-Phe-GLy-Asp(OBu^t)2 | 62.2 | 
14 | H-Arg-Gly-Gln-Phe-Phe-Gly-Asp(OBu^t)2 |  | step yield (late stage modification step): 39.5%
15 | H-Arg-Gly-Gln-Phe-Phe-Gly-Asp(OBu^t)2.2HCl |  | step yield (late stage modification step, 2HCl): 89%
16 | Z-Gln-(D)-Trp-Phe-Gly-Asp(OBu^t)2 | 67.6 | 
17 | H-Arg-Gly-Gln-(D)-Trp-Phe-Gly-Asp(OBu^t)2.H2 SO4 |  | step yield (late stage modification step, H2SO4): 97%
